Laboratory results from PubChem BioAssay AID1671190 (National Center for Advancing Translational Sciences (NCATS), 2021).
Among all 580,000 compounds or so, about 6,100 (1.1%) were called active. The inconclusive results got no clear call from the source; some entries with a clear call stand among them for comparison. The call rests on the fitted dose curve; in most records, active means well fitted inhibition curve with a large enough effect; inconclusive means small, poorly fitted or top-dose-only effect, or another doubt; inactive means no such curve, though single readings can be large or run the other way. Potencies of inconclusive entries are doubtful fits and often do not repeat.

Amino acid sequences for entries named in this document (tags omitted). A change or cut given only in a name is not applied to a line headed by its entry.
UniProt P18054: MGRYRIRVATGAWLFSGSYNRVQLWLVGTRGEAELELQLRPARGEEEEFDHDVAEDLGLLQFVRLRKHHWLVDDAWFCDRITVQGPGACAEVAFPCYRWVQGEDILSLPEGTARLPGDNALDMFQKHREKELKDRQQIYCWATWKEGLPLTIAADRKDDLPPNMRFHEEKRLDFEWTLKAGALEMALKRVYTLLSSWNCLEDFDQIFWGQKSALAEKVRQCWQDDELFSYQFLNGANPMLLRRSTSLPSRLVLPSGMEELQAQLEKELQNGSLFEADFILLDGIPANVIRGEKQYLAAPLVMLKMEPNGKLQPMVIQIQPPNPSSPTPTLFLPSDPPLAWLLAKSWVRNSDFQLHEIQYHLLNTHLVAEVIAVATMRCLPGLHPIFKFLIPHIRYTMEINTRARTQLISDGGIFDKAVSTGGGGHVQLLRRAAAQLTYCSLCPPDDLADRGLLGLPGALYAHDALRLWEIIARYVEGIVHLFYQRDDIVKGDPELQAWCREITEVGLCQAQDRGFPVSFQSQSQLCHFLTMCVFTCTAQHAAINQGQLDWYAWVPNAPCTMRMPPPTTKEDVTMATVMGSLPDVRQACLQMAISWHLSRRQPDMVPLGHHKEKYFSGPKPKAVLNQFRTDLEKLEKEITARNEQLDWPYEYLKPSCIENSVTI

Biological target: Polyunsaturated fatty acid lipoxygenase ALOX12 (Homo sapiens) (UniProt P18054)
Experiment: Primary qHTS assay for inhibitors of human arachidonate 12S-lipoxygenase (ALOX12): Round 2
Settings: purified 12hLO, xylenol orange hydroperoxide absorbance; activity change, negative = inhibition: at 108 µM (top of the series) unless noted
In short: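 Purified human 12hLO at 150 nM in 25 mM Hepes, 0.01% Triton X-100, pH 7.0, preincubated 15 min at room temperature with compound. Reaction started with 40 uM arachidonic acid, 30 min at room temperature. Hydroperoxide measured by Fe-xylenol orange, 573/405 nm absorbance ratio.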
On the % scale 0 is the no-effect control and ±100 the full control effect; potency means the concentration at half of the fitted maximal effect.

For `O=C1CSC(c2cn(-c3ccccc3)nc2-c2ccc3c(c2)OCCO3)N1CCN1CCOCC1` (stereo not given), which Potency is on record?
Its Potency is inconclusive: 112 µM [inhibitor, single point].

How did the Potency turn out when `COc1cc(/C=N/N2CCN(Cc3ccc(C)cc3)CC2)cc(OC)c1O` was run?
Its Potency is inconclusive: 22.4 µM [inhibitor, partial curve, poor fit].

For `CCCCN(C)C(=O)Cn1ncc2c([nH]c3ccc(C)cc32)c1=O`, which Potency is on record?
Its Potency is inconclusive: 79.4 µM [inhibitor, partial curve, poor fit].

Which Potency does the source give for `COc1ccc(NC(=O)Cn2nc3n(c2=O)CCCC3)cc1` here?
Its Potency is “inactive”.

For `O=C(CCCCCN1C(=O)c2cccc3cccc(c23)C1=O)NCCCO`, which Potency is on record?
The Potency was “inactive”.

`COC(=O)c1sc(=S)n(-c2cccc(Cl)c2)c1N` was tested. Which Potency did it give?
Its Potency is inconclusive: 28.2 µM [inhibitor, partial curve].

`CC/C(=C(\c1ccc(O)cc1)c1ccc(OCCN(C)C)cc1)c1ccccc1` was tested. Which Potency did it give?
Its Potency is inconclusive: 44.7 µM [inhibitor, partial curve, poor fit].

With `Cc1cnc(-c2cccnc2)n1CC1CCNCC1` as the molecule, how does the Potency read?
Its Potency is “inactive”.

Which Potency does the source give for `COc1cc(OC)c(OC)cc1CN1CCN(C(=O)CC(C)C)CC1` here?
Its Potency is inconclusive: 0.631 µM [inhibitor, full curve, poor fit].

With `CC(=O)Nc1ccc(S(=O)(=O)NC[C@@H]2C=C(C)[C@H](CC(=O)NCCN3CCOCC3)C[C@H]2C(C)C)cc1` as the molecule, how does the Potency read?
The Potency was inconclusive: 31.6 µM [inhibitor, full curve, poor fit].

For `Cc1cc2nc(-c3ccc(SCC(=O)N4CCOCC4)nc3)[nH]c2cc1C`, which Potency is on record?
The Potency was “inactive”.

`CCc1ccc(NC(=O)c2cccnc2)cc1` was tested. Which activity change, negative = inhibition did it give?
Its activity change, negative = inhibition is inconclusive: -41.9% [inhibitor].

How did the Potency turn out when `O=C(Nc1ccc(Cl)c(C(F)(F)F)c1)NC1CC2CCCC(C1)N2Cc1ccccc1` (stereo not given) was run?
Its Potency is inconclusive: 79.4 µM [inhibitor, single point].

For `CCCCCOc1ccc(N2C(=O)CC(N(O)c3ccccc3)C2=O)cc1` (stereo not given), which Potency is on record?
Its Potency is inconclusive: 35.5 µM [inhibitor, partial curve, poor fit].

Which Potency does the source give for `COc1cc(CNCCN2CCOCC2)ccc1OCC(=O)NC(C)(C)C` here?
The Potency was “inactive”.

For `Cc1ccc(S(=O)(=O)N(C)C)cc1NC(=O)COC(=O)c1c(-c2ccccc2)noc1C`, which Potency is on record?
The Potency was “inactive”.

With `O=C(Nc1nc(-c2cccs2)cs1)c1ccc([N+](=O)[O-])o1` as the molecule, how does the Potency read?
Its Potency is inconclusive: 89.1 µM [inhibitor, partial curve, poor fit].

How did the Potency turn out when `CC1(C(=O)Nc2cnc3ccccc3c2)CCN1C(=O)C/C=C/c1ccccc1` (stereo not given) was run?
Its Potency is inconclusive: 35.5 µM [inhibitor, full curve, poor fit].

Which Potency does the source give for `O=C(O)c1cccc2c1C(=O)C(CC1CCCO1)N2` (stereo not given) here?
The Potency was inconclusive: 89.1 µM [inhibitor, single point].

`O=C(COC(=O)c1ccccc1C(=O)c1ccccc1)Nc1ccc(SC(F)F)cc1` was tested. Which Potency did it give?
Its Potency is “inactive”.

How did the Potency turn out when `Cc1cccc(C(=O)OCC(=O)N2CCc3ccccc3C2)c1O` was run?
The Potency was inconclusive: 39.8 µM [inhibitor, partial curve].

Which Potency does the source give for `O=C(CN1C(=O)NC2(CCCC2)C1=O)Nc1nc2ccccc2[nH]1` here?
Its Potency is “inactive”.

How did the Potency turn out when `O=C(/C=C/c1ccc(Cl)cc1Cl)Nc1cccc(S(=O)(=O)NC2=NCCC2)c1` was run?
The Potency was “inactive”.

`O=c1oc2ccccc2c2oc3cc(O)c(O)cc3c12` was tested. Which Potency did it give?
The Potency was active: 6.31 µM.

Which Potency does the source give for `O=C(c1cccc(Br)c1)N1CCN(c2ccccn2)CC1` here?
Its Potency is inconclusive: 126 µM [inhibitor, single point].

`c1ccc(CNc2nc(N3CCN(Cc4ccccc4)CC3)nc3ccccc23)cc1` was tested. Which Potency did it give?
The Potency was inconclusive: 35.5 µM [inhibitor, partial curve, poor fit].

Which Potency does the source give for `CC1(c2ccccc2)NC(=O)N(CC(=O)Nc2ccc([N+](=O)[O-])cc2)C1=O` (stereo not given) here?
The Potency was inconclusive: 56.2 µM [inhibitor, partial curve, poor fit].

How did the Potency turn out when `O=C1C2CCCN2C(c2ccccc2)N1c1nccs1` (stereo not given) was run?
Its Potency is “inactive”.

`CCCC(=O)Nc1cccc(NC(=O)c2ccc3c(c2)OCO3)c1` was tested. Which Potency did it give?
Its Potency is “inactive”.

For `CCc1ccccc1CC1CN(Cc2ccccc2)Cc2ccccc2N1c1ccc(OC)cc1` (stereo not given), which Potency is on record?
Its Potency is “inactive”.

How did the Potency turn out when `O=C(Cc1cccc(F)c1)N1CCC(c2n[nH]c(=O)n2-c2ccccc2)CC1` was run?
Its Potency is inconclusive: 44.7 µM [inhibitor, partial curve].

`CCNC(=O)NC(=O)C(C)Sc1nc(-c2ccco2)nc2ccccc12` (stereo not given) was tested. Which Potency did it give?
The Potency was inconclusive: 100 µM [inhibitor, single point].

With `CCc1ccc(-c2nc(C)c(C(=O)N3CCN(Cc4ccc(C#N)cc4)CC3)s2)cc1` as the molecule, how does the Potency read?
Its Potency is “inactive”.

How did the Potency turn out when `Cc1cc(C)c(/C([O-])=C(/C(=S)Nc2ccc(SC(F)F)cc2)[n+]2ccccc2)cc1C` was run?
The Potency was inconclusive: 17.8 µM [inhibitor, partial curve].

How did the Potency turn out when `CCCCC(=O)Nc1nnc(C2=COCCO2)o1` was run?
The Potency was “inactive”.

For `COCC(=O)Nc1ccc(N2CCCC2)c(S(=O)(=O)Nc2ccccc2OC)c1`, which Potency is on record?
The Potency was inconclusive: 79.4 µM [inhibitor, single point].

For `CC1CCN(C(=O)CSc2nc(=O)n3cc(Cl)ccc3n2)CC1`, which Potency is on record?
Its Potency is “inactive”.

For `COc1ccc(-c2cc(C(=O)Oc3ccccc3)c3cc(C)ccc3n2)cc1`, which Potency is on record?
Its Potency is “inactive”.

Which Potency does the source give for `CS(=O)(=O)N(C1CC1)C1CCOC2(CCN(C(=O)c3ccncc3)CC2)C1` (stereo not given) here?
The Potency was “inactive”.

For `CCOC(=O)C(C)Sc1nnc(Cn2c(=O)sc3ccccc32)n1-c1ccccc1` (stereo not given), which Potency is on record?
The Potency was inconclusive: 20 µM [inhibitor, partial curve, poor fit].

How did the Potency turn out when `Oc1c(Cl)cc(Cl)cc1Br` was run?
The Potency was inconclusive: 100 µM [inhibitor, single point].

Which Potency does the source give for `CCN(c1ccccc1)S(=O)(=O)c1ccc(OC)c(NC(=O)c2ccccc2OC)c1` here?
Its Potency is “inactive”.

How did the Potency turn out when `Cc1cc(=O)oc2cc(OCC(=O)N3CCOCC3)ccc12` was run?
Its Potency is inconclusive: 14.1 µM [inhibitor, partial curve, poor fit].

`CC(C#N)(NC(=O)CN1CCN(S(=O)(=O)c2cc(C(F)(F)F)ccc2Cl)CC1)C1CC1` (stereo not given) was tested. Which Potency did it give?
The Potency was inconclusive: 50.1 µM [inhibitor, partial curve, poor fit].

For `Cc1noc(C)c1-c1nc(Nc2ccncc2)c2ccccc2n1`, which Potency is on record?
Its Potency is inconclusive: 44.7 µM [inhibitor, partial curve, poor fit].
